According to PubChem BioAssay AID2685 (National Center for Advancing Translational Sciences (NCATS), 2010):
The list shows a part of the results. The main result of the screen is listed elsewhere. These columns were measured beside it and carry no call. Most of these compounds were active or inconclusive in the main read-out, so they are no random draw. Potencies come from curve fits of mixed quality, noted in brackets.

Assay: qHTS Assay for Lipid Storage Modulators in Drosophila S3 Cells;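 as to cell number change: cells counted by Cell Tracker Red CMTPX staining in the red channel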
Conditions: BODIPY lipid droplet fluorescence, 18-24 h; for cell number change: measured here: cell count max response, cells fed with added oleic acid
In short: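 Drosophila S3 cells got compounds at several concentrations plus oleic acid (400 uM solution). Laser-scanning cytometry with 488 nm excitation read lipid droplets at 500-530 nm and cells at 575-640 nm. Percent activity was relative to 20 uM Triacsin C.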

[1] = measured here: lipid fluorescence (Fed channel) AC50, cells fed with added oleic acid
[2] = measured here: cell number channel AC50, cells fed with added oleic acid

| SMILES | cell number change | AC50 [1] | AC50 [2] |
| --- | --- | --- | --- |
| COc1ccccc1OCCNC(=O)c1c(-c2ccccc2Cl)noc1C | -23.5% | 29.1 µM [falling, single point] |  |
| CCC1(c2ccc(F)cc2)NC(=O)N(CC(=O)N2CCc3ccccc3C2)C1=O (stereo unspecified) |  |  | 6.51 µM [rising, single point] |
| C=CCOC(=O)C1=C(C)NC(=O)NC1/C=C/c1ccccc1OC (stereo unspecified) | 16.6% | 29.1 µM [rising, single point] |  |
| COc1ccc(-c2nnc(SC)n2C)cc1 | -2.33% | 0.13 µM [falling, partial curve, poor fit] |  |
| COc1ccc(Oc2coc3cc(OC(=O)c4cncc(Br)c4)ccc3c2=O)cc1 | -10.4% | 6.51 µM [falling, single point] | 6.51 µM [falling, single point] |
| Cc1ccccc1-c1nnc(SCC(=O)N(CC(C)C)c2c(N)n(CC(C)C)c(=O)[nH]c2=O)n1C | 28% |  | 0.00461 µM [rising, full curve, poor fit] |
| Cc1ccc2c(c1)c(C)c(C)n2CC(O)Cn1nc(C)c(Br)c1C (stereo unspecified) | -66.4% | 32.6 µM [falling, single point] | 23.1 µM [falling, single point] |
| CC(C)c1c(C(=O)N/N=C/c2ccc(-c3ccccc3)cc2)nnn1-c1nonc1N | 8.26% |  |  |
| Cc1sc(NC(=O)c2ccco2)c(CN2CCC(C)CC2)c1C | 43% |  | 23.1 µM [rising, single point] |
| Cc1c(C(=O)NCc2ccccn2)oc2ccccc12 | 11.5% | 7.31 µM [rising, partial curve] |  |
| Cc1cccc(NC(=O)Cn2c(O)c(N=NC(=O)c3ccccc3O)c3ccccc32)c1 | -81.2% | 5.8 µM [falling, partial curve, poor fit] | 29.1 µM [falling, single point] |
| Cc1cccc(N2CCN(CCCNC(=O)c3ccc(NC(=O)C4=CSCCO4)cc3)CC2C)c1 (stereo unspecified) | 1.52% | 20.6 µM [rising, single point] | 2.59 µM [rising, partial curve, poor fit] |
| CCOC(=O)c1cc(=O)n2nc(-c3ccccc3F)nc2s1 | 12.3% |  | 0.58 µM [rising, full curve, poor fit] |
| CCOc1ccc(Cn2ccnc2CCl)cc1[N+](=O)[O-] | -4.29% | 3.26 µM [rising, single point] |  |
| COc1ccc(CCNC(=O)CN2C(=O)COc3ccc(S(=O)(=O)N4CCCC4)cc32)c(OC)c1 | -8.56% |  | 0.146 µM [rising, full curve, poor fit] |
| Cc1ccc(N2C(=O)c3ccc(C(=O)N4CCN(c5ccc(C)c(C)c5)CC4)cc3C2=O)cc1 | 2.64% | 0.0731 µM [falling, full curve, poor fit] |  |
| Cc1cccc(C)c1NC(=O)CN1CCN(CC(=O)NCC2(N3CCCCC3)CCCCC2)CC1 | 8.92% | 3.26 µM [rising, partial curve] |  |
| CCCCOC(=O)c1ccc(Nc2ccc([N+](=O)[O-])cn2)cc1 | 7.67% | 0.58 µM [rising, full curve] |  |
| COc1ccc(C2c3c(oc4c(C)cc(C)cc4c3=O)C(=O)N2Cc2cccnc2)cc1OC (stereo unspecified) | 26.4% |  |  |
| Cc1cc(CNC(=O)[C@H](C)[C@@H]2C[C@@]2(C)[C@@H](NC(=O)OCc2ccccc2)c2ccccc2)nn1C |  | 13 µM [rising, partial curve, poor fit] |  |
| Nc1ccc2nc(-c3ccccc3)sc2c1 | -24.3% | 0.731 µM [rising, full curve] |  |
| COc1cccc(CN2CCN(C(=O)c3ccc(-c4ccccc4)cc3)CC2)c1OC | -26.6% | 29.1 µM [falling, single point] |  |
| C=CCn1c2ccccc2c(=O)c2cc(C#CC[C@@H](C)O)ccc21 | 6.34% | 0.0366 µM [falling, full curve] |  |
| Cc1csc2nc(=O)c3ccccc3n12 | 231% | 1.3 µM [rising, full curve] | 16.4 µM [rising, partial curve] |
| CC1CCCN(S(=O)(=O)c2cccc3nonc23)C1 (stereo unspecified) | -13.3% | 0.651 µM [falling, partial curve, poor fit] |  |
| CCN(C(=O)COC(=O)c1ccc(COc2ccc3c(C)cc(=O)oc3c2)cc1)C1CCS(=O)(=O)C1 (stereo unspecified) | 12.8% | 6.51 µM [rising, single point] |  |
| COc1cc(CN/C(C)=C(\C#N)C(N)=O)cc(OC)c1OC |  |  | 6.51 µM [rising, partial curve, poor fit] |
| CCOc1ccc(CCNC(=O)Cn2ncn3nc(-c4ccc(OC)cc4)cc3c2=O)cc1 | 6.92% | 0.82 µM [falling, single point] |  |

Pulled by compound from the entries so far (2):

| SMILES | cell number change | AC50 [1] | AC50 [2] |
| --- | --- | --- | --- |
| CCN(C(=O)COC(=O)c1ccc(COc2ccc3c(C)cc(=O)oc3c2)cc1)C1CCS(=O)(=O)C1 (stereo unspecified) | 12.8% | 6.51 µM [rising, single point] |  |
| Cc1csc2nc(=O)c3ccccc3n12 | 231% | 1.3 µM [rising, full curve] | 16.4 µM [rising, partial curve] |
